PubChem BioAssay AID1259276 | Sanger Institute | 2017
Aim: 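Find kinases whose silencing cuts viability alone or combined with BYL719, cetuximab or trametinib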 (primary screen). Cell system: human C2BBe1 colorectal cancer cells. Knock-down reagent: siRNA pool against human genes. Treatment: DMSO vehicle, or one anchor drug: BYL719 at 1 µM, cetuximab at 5 µg/ml, or trametinib at 10 nM; exposure length not stated. Detection: 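Viability after knock-down relative to non-targeting siRNA controls, averaged across replicates, given as ratio and control-derived robust z-score, with per-drug synergy scores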. Reading the numbers: viability robust z-score, siRNA alone and viability vs control, siRNA alone: higher = more viable cells after knock-down; synergy score with BYL719: higher = stronger combined killing with BYL719; synergy score with cetuximab: higher = stronger combined killing with cetuximab; synergy score with trametinib: higher = stronger combined killing with trametinib. Rule for the call: 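a siRNA pool tested without drug is essential if its viability robust z-score falls under -3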. Meaning of the calls: active = essential (siRNA alone); inactive = no change (siRNA alone).
The deposit covers 794 reagents; below is a random part of them. Of all reagents, 24 (3%) got an active call. 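Calls come only from the siRNA-alone arm; drug synergy scores do not affect them.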 No viability above 1 is reported: the scale is capped. Not stated in the record: the amount of reagent, the time to read-out.

no.	target gene	PubChem SID	viability robust z-score, siRNA alone	viability vs control, siRNA alone	synergy score with BYL719	synergy score with cetuximab	synergy score with trametinib	call
1	INSR	SID152149459	0.472	1	-0.142	-0.0115	-0.0667	inactive
2	DDR1	SID152155868	0.472	1	-0.142	-0.0115	-0.0667	inactive
3	CSNK1D	SID56478658	0.472	1	-0.0457	0.165	0.0099	inactive
4	CDADC1	SID56479191	0.15	0.98	-0.159	0.0374	-0.0857	inactive
5	CDK14	SID56478888	-1.02	0.906	0.0597	-0.00931	-0.154	inactive
6	UCK2	SID56478981	0.273	0.987	-0.153	-0.0238	-0.0784	inactive
7	SOS2	SID152153288	0.472	1	-0.0355	-0.0115	-0.0667	inactive
8	PIK3CA	SID135620605	0.472	1	-0.0543	0.139	0.0389	inactive
9	XYLB	SID152153831	0.472	1	-0.0182	-0.0115	-0.0667	inactive
10	MAP3K1	SID152150888	0.309	0.99	-0.0986	-0.0216	0.109	inactive
11	PKIA	SID56479258	0.138	0.979	0.108	0.0529	-0.0863	inactive
12	KCNH2	SID135621164	0.472	1	0.306	0.0647	-0.0667	inactive
13	CTNNB1	SID134309920	-3.16	0.771	-0.153	-0.148	-0.0639	active
14	GNE	SID56479101	-0.244	0.955	-0.13	-0.0561	-0.0998	inactive
15	WNK1	SID152148140	0.472	1	0.0799	0.069	0.0657	inactive
16	MAPK10	SID56478791	0.472	1	-0.0433	-0.0115	-0.0667	inactive
17	PRP4K	SID152152780	0.472	1	0.182	0.000824	-0.0667	inactive
18	PRPS2	SID152153546	0.472	1	-0.12	0.117	-0.0667	inactive
19	CSNK2A1	SID135620685	0.472	1	-0.142	-0.0115	-0.0424	inactive
20	DGKA	SID152151940	0.472	1	0.205	0.261	-0.0667	inactive
21	TK2	SID152153963	0.472	1	0.0116	-0.0115	0.226	inactive
22	MAP2K7	SID56478752	-1.01	0.907	-0.0639	0.0105	-0.154	inactive
23	CERT1	SID56479254	0.472	1	0.202	0.15	-0.0667	inactive
24	PRKACA	SID135620859	0.121	0.978	-0.146	-0.0334	0.0459	inactive
25	PRKACG	SID56478826	0.472	1	-0.0945	0.137	-0.0636	inactive
26	ITPKC	SID56479112	0.472	1	-0.142	-0.0115	-0.0667	inactive
27	SPEG	SID56479185	-1.04	0.905	-0.0333	-0.106	0.0127	inactive
28	ITK	SID135620623	0.472	1	-0.105	0.741	-0.0667	inactive
29	CAMK2B	SID135620913	0.472	1	-0.142	-0.0115	-0.0667	inactive
30	MET	SID56478534	0.472	1	-0.142	0.0524	-0.0667	inactive
31	STK40	SID56479025	0.472	1	-0.0844	0.071	-0.0667	inactive
32	MERTK	SID135620626	-0.292	0.952	-0.122	-0.0591	-0.112	inactive
33	PLK3	SID56478615	0.472	1	0.0164	-0.0115	-0.0614	inactive
34	RIOK1	SID56479042	0.472	1	-0.00875	-0.0115	-0.0667	inactive
35	TAB1	SID135620883	0.472	1	-0.142	0.0515	-0.0667	inactive
36	HCK	SID135620622	0.472	1	0.0519	0.0288	-0.0667	inactive
37	CHEK2	SID152153325	0.472	1	-0.142	-0.0115	-0.0667	inactive
38	CDK13	SID152148828	0.472	1	0.0363	-0.0115	-0.0667	inactive
39	CILK1	SID152149076	0.472	1	0.215	0.0925	-0.0667	inactive
40	PDIK1L	SID152147170	-0.63	0.931	0.0352	-0.0801	-0.132	inactive
41	NME4	SID56479075	0.472	1	0.05	-0.0115	-0.036	inactive
42	CDK5R1	SID135621688	-1.38	0.883	0.0475	-0.101	-0.126	inactive
43	IKBKG	SID152147833	-3.32	0.761	0.0236	-0.221	-0.176	active
44	PIM1	SID56478736	0.326	0.991	0.233	0.136	-0.028	inactive
45	STAG2	SID152146952	0	0.97	-0.167	-0.0409	-0.0945	inactive
46	AK2	SID56479162	0.472	1	0.221	0.0157	-0.0667	inactive
47	SRPK1	SID56478751	0.472	1	0.0715	0.0552	-0.0667	inactive
48	DGKQ	SID56478983	0.472	1	-0.14	0.0114	-0.038	inactive
49	ETNK2	SID56478982	0.472	1	-0.142	-0.0115	-0.0667	inactive
50	TAF1L	SID152155360	-3.15	0.772	-0.0955	-0.0805	-0.28	active
51	MAPK7	SID56478666	0.472	1	-0.142	-0.0115	-0.0667	inactive
52	ULK1	SID56478976	0.472	1	-0.114	-0.0115	-0.0667	inactive
53	TTK	SID56478775	0.472	1	0.00682	0.0567	-0.0667	inactive
54	CAMK4	SID56478933	0.472	1	-0.142	0.00354	-0.0667	inactive
55	TEK	SID152152932	-2.55	0.809	-0.306	-0.2	-0.0867	inactive
56	POLR2B	SID134315545	0.472	1	-0.131	0.29	-0.0616	inactive
57	DTYMK	SID135621237	0.472	1	-0.142	0.0133	-0.0155	inactive
58	TRPM6	SID56478975	-0.112	0.963	-0.0538	-0.0478	-0.101	inactive
59	BUB1B	SID152154799	-0.522	0.937	-0.151	-0.0734	-0.125	inactive
60	PRKX	SID152149946	0.472	1	-0.0364	-0.0115	-0.0667	inactive
61	NEK4	SID152155431	0.472	1	0.252	0.467	-0.0667	inactive
62	MED12	SID152147641	0.472	1	-0.0892	-0.0115	0.0217	inactive
63	PHKG1	SID152147540	0.472	1	-0.061	-0.0115	-0.0667	inactive

Hits (from the list above):
target gene	PubChem SID	viability robust z-score, siRNA alone	viability vs control, siRNA alone	synergy score with BYL719	synergy score with cetuximab	synergy score with trametinib	call
CTNNB1	SID134309920	-3.16	0.771	-0.153	-0.148	-0.0639	active
IKBKG	SID152147833	-3.32	0.761	0.0236	-0.221	-0.176	active
TAF1L	SID152155360	-3.15	0.772	-0.0955	-0.0805	-0.28	active
